Laboratory results published in PubChem BioAssay AID2685 (National Center for Advancing Translational Sciences (NCATS), 2010).
The list shows a part of the results. These are further read-outs of the screen, such as a control signal, another cell line or another target. No call is given for them. Most of these compounds were active or inconclusive in the main read-out, so they are no random draw. The note in brackets gives the kind of curve behind each potency; many fits are weak.

Experiment: qHTS Assay for Lipid Storage Modulators in Drosophila S3 Cells;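 as to cell number change: cells counted by Cell Tracker Red CMTPX staining in the red channel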
Settings: BODIPY lipid droplet fluorescence, 18-24 h; for cell number change: measured here: cell count max response, cells fed with added oleic acid
In short: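 Drosophila S3 cells got compounds at several concentrations plus oleic acid (400 uM solution). Laser-scanning cytometry with 488 nm excitation read lipid droplets at 500-530 nm and cells at 575-640 nm. Percent activity was relative to 20 uM Triacsin C.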

[1] = measured here: lipid fluorescence (Fed channel) AC50, cells fed with added oleic acid
[2] = measured here: cell number channel AC50, cells fed with added oleic acid

Structure (SMILES)	cell number change [%]	AC50 [1]	AC50 [2]
COC(=O)c1c(-c2ccc(F)cc2)csc1NC(=O)c1ccco1	-26.6	6.51 µM [rising, single point]	
CO/N=C/C(C#N)=C/c1ccc(OC)cc1	10.2		
COC(=O)c1ccc(COc2ccc(/C=N/N3CCN(C)CC3)cc2)cc1	-117		23.1 µM [falling, partial curve, poor fit]
COc1cccc(CN(C(=O)c2ccccc2Br)C2CCS(=O)(=O)C2)c1 (stereo unspecified)	-4.13	29.1 µM [falling, single point]	
COC(=O)C1=C(C)NC2=C(C(=O)CC(C)(C)C2)C1c1cccc(C)n1 (stereo unspecified)	4.14		
O=C(CCCCCNC(=O)c1ccccc1)N/N=C/c1ccc(F)cc1			2.31 µM [rising, single point]
O=C(Cn1ncc2c([nH]c3ccccc32)c1=O)Nc1ccc(F)cc1F	29.3	0.58 µM [falling, single point]	
Cc1ccc(CC(=O)Nc2ccccc2-c2ccccc2)cc1C	4.6	2.91 µM [rising, partial curve]	
COc1ccc(N/C=C/C(=O)c2ccc(Cl)cc2)cc1	-2.33	29.1 µM [falling, single point]	
CCCc1cc(=O)n2[nH]c(C)c(-c3ccc(Cl)cc3)c2n1	-4.91		
Cc1ccc(NC(=O)Cn2nc(C)c3ccccc3c2=O)c(C)c1		0.00411 µM [rising, full curve, poor fit]	0.164 µM [rising, partial curve, poor fit]
O=C(COC(=O)[C@@H]1CC(O)CN1S(=O)(=O)c1ccc2c(c1)OCCO2)Nc1ccccc1F (stereo partly specified)	-14.2	0.0092 µM [falling, full curve, poor fit]	0.00461 µM [falling, full curve, poor fit]
O=C(COc1cccc2cccnc12)NCC(F)(F)F	-0.682		
CCc1noc(C)c1C(=O)Nc1nc(-c2cc(C)ccc2C)c(C)s1	-22.2		
Cc1cc(NC(=O)COn2nnc3ccc(Cl)cc32)no1	28.4		
Cc1ccccc1OCc1nnc(SCC(=O)O)n1-c1cccc(Cl)c1	7.61	29.1 µM [rising, single point]	
COc1ccc(Cc2nc3ccc(C(=O)N4CCC(N(C)C)C4)cc3o2)cc1 (stereo unspecified)	14.4		

Of the compounds above, 2 have four or more nitrogen atoms.
Structure (SMILES)	cell number change [%]	AC50 [1]	AC50 [2]
O=C(Cn1ncc2c([nH]c3ccccc32)c1=O)Nc1ccc(F)cc1F	29.3	0.58 µM [falling, single point]	
Cc1cc(NC(=O)COn2nnc3ccc(Cl)cc32)no1	28.4		

Next part.

Structure (SMILES)	cell number change [%]	AC50 [1]	AC50 [2]
NS(=O)(=O)c1ccc(CNC(=O)CCSCCC(=O)NCc2ccc(S(N)(=O)=O)cc2)cc1	20.3	13 µM [rising, partial curve, poor fit]	
Cc1ccc(NS(=O)(=O)c2ccc3c(c2)OCCCO3)cc1S(=O)(=O)N1CCOCC1	15.4	0.82 µM [falling, full curve, poor fit]	
COC(=O)N/N=C/c1ccccc1OCc1ccccc1	-83.3		4.11 µM [falling, full curve]
Cc1nc2ccc(C(=O)OCc3nnc(-c4ccc(Br)cc4)o3)cc2nc1C	11.9		
O=C(COc1ccc2ccccc2c1)NC1CC1		6.51 µM [rising, single point]	
Nc1c(N(Cc2ccccc2)C(=O)COc2ccc(F)cc2)c(=O)[nH]c(=O)n1Cc1ccccc1		0.58 µM [rising, single point]	
CCN1CCN(c2ccc(S(=O)(=O)N3CCCCC3)cc2NC(=O)c2cccc(C(F)(F)F)c2)CC1	5.66	18.4 µM [rising, single point]	
COc1ccc(-c2noc(N3CCC(C(=O)NCCCN4CCC(C)CC4)CC3)n2)cc1	2.31	25.9 µM [rising, single point]	
CCn1ncc(CNC(=O)C2(C)CC2(Br)Br)c1C (stereo unspecified)	-2.49	0.0326 µM [falling, full curve, poor fit]	
Cc1nc2ccccc2c(=O)n1NC(=O)c1ccc(F)cc1Cl	-2.3		
COC(=O)[C@@H]1Cc2c([nH]c3ccccc23)C(C)(C)N1C(=O)CCl	-19.9	0.0146 µM [falling, single point]	
Cc1nnc(NC(=O)c2ccc3c(c2)C(=O)N(CC2CCCO2)C3=O)s1 (stereo unspecified)	9.55	1.16 µM [falling, single point]	0.164 µM [falling, partial curve]
COc1ccc(NC(=O)CN2C(=O)c3ccccc3S2(=O)=O)cc1OC	48.4		29.1 µM [rising, single point]
Cc1ccc(C)c(S(=O)(=O)/N=C2\C=C(NS(=O)(=O)c3ccccc3)C(=O)c3ccccc32)c1	-17.9	5.17 µM [falling, single point]	
O=[n+]1cc(-c2ccc(Cl)cc2)n([O-])c2c1CCCCC2	4.34		
CCOc1ccc(Nc2nc(N)c([N+](=O)[O-])c(N3CCN(C)CC3)n2)cc1	36	6.51 µM [falling, single point]	29.1 µM [rising, single point]
